In brackets after ≈: the same amount, converted by molar mass.
Tested on: Mycobacterium tuberculosis H37Rv
Experiment: MIC, M. tuberculosis
Format: cell-based

CO[C@H]1/C=C/O[C@@]2(C)Oc3c(C)c(O)c4c(O)c(c(/C=N/N5CCN(C)CC5)c(O)c4c3C2=O)NC(=O)/C(C)=C\C=C\[C@H](C)[C@H](O)[C@@H](C)[C@@H](O)[C@@H](C)[C@H](OC(C)=O)[C@@H]1C [rifampin, reference compound]
MIC: 0.03 µg/mL (≈ 0.0365 µM)

From patent publication US7678791B2, “Nitroheteroaryl-containing rifamycin derivatives” (Cumbre IP Ventures, L.P., priority 2006, dated 2010)
